# Laboratory results reported in the supplement of paper PMC12009310.
# Where a name gives a salt, the structure may show the parent alone. ± gives the standard deviation of the averaged measurements. Some of the results follow. Plates or batches differ in their baseline, so values are only roughly comparable.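 The cells are a mouse kidney inner medullary collecting duct line, silenced either for the ciliary gene Rpgrip1l or with a non-targeting control siRNA.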
# Tested on: mIMCD3
# Experiment: robust z score of cell number vs plate controls; higher = more cells (less cytotoxic)
# Conditions: 10 µM; 48 h; siRNA: siRpgrip1l
row,Compound,robust z score of cell number
1,OC(CN1CCN(c2cccc(Cl)c2)CC1)C(c1ccccc1)c1ccccc1 (stereo not drawn),-51.9 ± 39
2,COc1cc(N)c(Cl)cc1C(=O)CCC1CCN(CCNS(C)(=O)=O)CC1,-12.3 ± 0.8
3,C#CCN1C(C)=C(C(=O)OC)C(c2cccc([N+](=O)[O-])c2)C(C(=O)OCC)=C1C (stereo not drawn),-16.9 ± 14
4,CCc1cc(-c2n[nH]c(C)c2-c2ccc3c(c2)OCCO3)c(O)cc1O,-29.5 ± 15
5,CN1CCc2cc(Cl)c(O)cc2[C@@H](c2ccccc2)C1,-3.47 ± 0.34
6,O=C1C(SCCO)=C(SCCO)C(=O)c2ccccc21,-192 ± 220
7,CCn1c(=O)[nH]c2ccccc21,-7.04 ± 1.9
8,COc1cc(-c2ccc(=O)[nH]n2)ccc1OC(F)F [Zardaverine],-12.5 ± 13
9,CC(C)C[C@@H](C(=O)N[C@H](C(=O)OC1CCCC1)c1ccccc1)[C@H](O)C(=O)NO,-42.5 ± 43
10,COC(=O)/C=C/c1cccc(N(Cc2ccc(-c3ccc(N(C)C)cc3)cc2)C(=O)C2CCCCC2)c1 [Fexaramine],-11.4 ± 1.5
11,COc1ccccc1N1CCN(CCCCN2C(=O)c3ccccc3C2=O)CC1 [NAN-190 hydrobromide],-8.03 ± 5.4
12,O=C1CC2(CCCC2)CC(=O)N1CCNCC1COc2ccccc2O1 (stereo not drawn),-52 ± 45
13,O=S(=O)(c1cccc2c(Cl)cccc12)N1CCCNCC1 [ML 9 hydrochloride],-124 ± 100
14,O=C(NCCNCC(O)COc1ccc(O)cc1)N1CCOCC1 (stereo not drawn) [Xamoterol hemifumarate],-1.82 ± 0.61
15,C[C@H](NC(=O)c1sccc1OCc1ccc(Cl)cc1)c1ccccc1,-62.1 ± 53
16,CCOC(=O)c1c(C)[nH]c2ccc3c(c12)CN1CCc2cc(OC)ccc2C1O3 (stereo not drawn),-35 ± 30
17,CCC(=O)NC1Cc2ccccc2C(c2ccccc2)C1 (stereo not drawn),-3.15 ± 3.7
18,CCCN(C/C=C/I)C1CCc2cccc(O)c2C1 (stereo not drawn) [8-Hydroxy-PIPAT oxalate],-49.1 ± 64
19,COc1ccc2c3c1O[C@H]1C[C@@H](O)C=C[C@@]31CCN(C)C2 [Galanthamine hydrobromide],0.739 ± 2.9
20,N[C@@H](C(=O)O)c1ccc(O)c(C(=O)O)c1 [(R)-3-Carboxy-4-hydroxyphenylglycine],19.2 ± 30

row,Compound,robust z score of cell number
1,Nc1nccc(-c2ccc3noc(-c4ccc(Cl)cc4)c3c2)n1 [PIM 1 Inhibitor 2],-24.4 ± 25
2,N#C/C(=C\c1ccc(O)c(O)c1)C(=O)NCCCCc1ccccc1,-57.4 ± 57
3,CC(C)c1ccc2c(c1)CC[C@H]1[C@](C)(CN)CCC[C@]21C [Lylamine hydrochloride],-41 ± 26
4,O=C(O)CC/C=C\C[C@H]1CO[C@@H](c2ccccc2Cl)O[C@H]1c1ccccc1O,-2.96 ± 0.54
5,CC(Oc1ccc(O)cc1)(P(=O)(O)O)P(=O)(O)O,-2.34 ± 1.4
6,O=C(/C=C/c1ccccc1)NC(NC(=S)Nc1cccc2cccnc12)C(Cl)(Cl)Cl (stereo not drawn) [Salubrinal],-20.8 ± 11
7,CCCn1c(=O)[nH]c2nc(-c3ccc(S(=O)(=O)O)cc3)[nH]c2c1=O,-4.04 ± 2.8
8,O=c1[nH]c2cc(C(F)(F)F)c(N3CCOCC3)cc2n(CP(=O)(O)O)c1=O,-4.4 ± 3.7
9,NC(C(=O)O)c1cc(O)cc(O)c1 (racemic),3.54 ± 0.5
10,CSc1cc2c(cc1C(F)(F)F)N(C(=O)Nc1cccnc1)CC2,-33 ± 32
11,O=C(NC(NC(=S)Nc1ccc(F)c([N+](=O)[O-])c1)C(Cl)(Cl)Cl)C(c1ccccc1)c1ccccc1 (stereo not drawn),-32.9 ± 10
12,O=C1c2ccccc2C(Cc2ccncc2)(Cc2ccncc2)c2ccccc21 [XE 991 dihydrochloride],-2.23 ± 0.24
13,Cc1noc(NS(=O)(=O)c2ccc(N)cc2)c1C [Sulfisoxazole],-2 ± 2.7
14,O=C(OCCN1CCOCC1)C1(c2ccccc2)CCCCC1 [PRE-084 hydrochloride],-2.16 ± 9
15,CCN1CCCC1CNC(=O)c1cc(S(=O)(=O)CC)c(N)cc1OC (stereo not drawn) [Amisulpride],-0.312 ± 1.3
16,O=C(CCCCCN1C(=O)c2cccc3cccc(c23)C1=O)NO [Scriptaid],-30 ± 15
17,Nc1nc2c(ncn2COCCO)c(=O)[nH]1 [Acyclovir],-7.67 ± 3.4
18,COC(=O)[C@H](NC(=O)c1cc(-c2ccccc2)nc2ccccc12)c1ccccc1,-34.7 ± 30
19,Cc1ccc2c(c1)C(=O)C1(O)CCN(c3ccccc3)C1=N2 (racemic) [(±)-Blebbistatin],-5.85 ± 6.5

# Same assay, conditions: 10 µM; 48 h; siRNA: siScr
row,Compound,robust z score of cell number
1,OC(CN1CCN(c2cccc(Cl)c2)CC1)C(c1ccccc1)c1ccccc1 (stereo not drawn),-21.6 ± 4.1
2,COc1cc(N)c(Cl)cc1C(=O)CCC1CCN(CCNS(C)(=O)=O)CC1,-12.6 ± 10
3,C#CCN1C(C)=C(C(=O)OC)C(c2cccc([N+](=O)[O-])c2)C(C(=O)OCC)=C1C (stereo not drawn),-14.8 ± 3.5
4,CCc1cc(-c2n[nH]c(C)c2-c2ccc3c(c2)OCCO3)c(O)cc1O,-27.1 ± 5.5
5,CN1CCc2cc(Cl)c(O)cc2[C@@H](c2ccccc2)C1,-0.836 ± 0.36
6,O=C1C(SCCO)=C(SCCO)C(=O)c2ccccc21,-44.9 ± 11
7,CCn1c(=O)[nH]c2ccccc21,-2.8 ± 0.64
8,COc1cc(-c2ccc(=O)[nH]n2)ccc1OC(F)F [Zardaverine],-2.91 ± 1.7
9,CC(C)C[C@@H](C(=O)N[C@H](C(=O)OC1CCCC1)c1ccccc1)[C@H](O)C(=O)NO,-26.1 ± 26
10,COC(=O)/C=C/c1cccc(N(Cc2ccc(-c3ccc(N(C)C)cc3)cc2)C(=O)C2CCCCC2)c1 [Fexaramine],-45.3 ± 29
11,COc1ccccc1N1CCN(CCCCN2C(=O)c3ccccc3C2=O)CC1 [NAN-190 hydrobromide],-5.42 ± 9.1
12,O=C1CC2(CCCC2)CC(=O)N1CCNCC1COc2ccccc2O1 (stereo not drawn),-41 ± 31
13,O=S(=O)(c1cccc2c(Cl)cccc12)N1CCCNCC1 [ML 9 hydrochloride],-83 ± 45
14,O=C(NCCNCC(O)COc1ccc(O)cc1)N1CCOCC1 (stereo not drawn) [Xamoterol hemifumarate],1.9 ± 0.35
15,C[C@H](NC(=O)c1sccc1OCc1ccc(Cl)cc1)c1ccccc1,-51.4 ± 1.6
16,CCOC(=O)c1c(C)[nH]c2ccc3c(c12)CN1CCc2cc(OC)ccc2C1O3 (stereo not drawn),-37 ± 23
17,CCC(=O)NC1Cc2ccccc2C(c2ccccc2)C1 (stereo not drawn),1.55 ± 1.5
18,CCCN(C/C=C/I)C1CCc2cccc(O)c2C1 (stereo not drawn) [8-Hydroxy-PIPAT oxalate],-4.19 ± 7.2
19,COc1ccc2c3c1O[C@H]1C[C@@H](O)C=C[C@@]31CCN(C)C2 [Galanthamine hydrobromide],-4.59 ± 5.4
20,N[C@@H](C(=O)O)c1ccc(O)c(C(=O)O)c1 [(R)-3-Carboxy-4-hydroxyphenylglycine],-5.73 ± 6.5

row,Compound,robust z score of cell number
1,Nc1nccc(-c2ccc3noc(-c4ccc(Cl)cc4)c3c2)n1 [PIM 1 Inhibitor 2],-7.77 ± 8.3
2,N#C/C(=C\c1ccc(O)c(O)c1)C(=O)NCCCCc1ccccc1,-28 ± 22
3,CC(C)c1ccc2c(c1)CC[C@H]1[C@](C)(CN)CCC[C@]21C [Lylamine hydrochloride],-54.7 ± 29
4,O=C(O)CC/C=C\C[C@H]1CO[C@@H](c2ccccc2Cl)O[C@H]1c1ccccc1O,-5.59 ± 0.46
5,CC(Oc1ccc(O)cc1)(P(=O)(O)O)P(=O)(O)O,-5.3 ± 1.5
6,O=C(/C=C/c1ccccc1)NC(NC(=S)Nc1cccc2cccnc12)C(Cl)(Cl)Cl (stereo not drawn) [Salubrinal],-17.8 ± 4.2
7,CCCn1c(=O)[nH]c2nc(-c3ccc(S(=O)(=O)O)cc3)[nH]c2c1=O,-3 ± 0.6
8,O=c1[nH]c2cc(C(F)(F)F)c(N3CCOCC3)cc2n(CP(=O)(O)O)c1=O,0.228 ± 0.69
9,NC(C(=O)O)c1cc(O)cc(O)c1 (racemic),1.22 ± 4.5
10,CSc1cc2c(cc1C(F)(F)F)N(C(=O)Nc1cccnc1)CC2,-0.783 ± 0.065
11,O=C(NC(NC(=S)Nc1ccc(F)c([N+](=O)[O-])c1)C(Cl)(Cl)Cl)C(c1ccccc1)c1ccccc1 (stereo not drawn),-144 ± 110
12,O=C1c2ccccc2C(Cc2ccncc2)(Cc2ccncc2)c2ccccc21 [XE 991 dihydrochloride],-4.15 ± 5.8
13,Cc1noc(NS(=O)(=O)c2ccc(N)cc2)c1C [Sulfisoxazole],-1.66 ± 3.3
14,O=C(OCCN1CCOCC1)C1(c2ccccc2)CCCCC1 [PRE-084 hydrochloride],9.72 ± 11
15,CCN1CCCC1CNC(=O)c1cc(S(=O)(=O)CC)c(N)cc1OC (stereo not drawn) [Amisulpride],-8.01 ± 12
16,O=C(CCCCCN1C(=O)c2cccc3cccc(c23)C1=O)NO [Scriptaid],-27.6 ± 4.7
17,Nc1nc2c(ncn2COCCO)c(=O)[nH]1 [Acyclovir],-39.6 ± 40
18,COC(=O)[C@H](NC(=O)c1cc(-c2ccccc2)nc2ccccc12)c1ccccc1,-0.615 ± 0.24
19,Cc1ccc2c(c1)C(=O)C1(O)CCN(c3ccccc3)C1=N2 (racemic) [(±)-Blebbistatin],-1.86 ± 1.8
